This note sets out measurements from paper PMC10541701.

Chains of the proteins cited; added tags and fusions are not shown.
UniProt P09874: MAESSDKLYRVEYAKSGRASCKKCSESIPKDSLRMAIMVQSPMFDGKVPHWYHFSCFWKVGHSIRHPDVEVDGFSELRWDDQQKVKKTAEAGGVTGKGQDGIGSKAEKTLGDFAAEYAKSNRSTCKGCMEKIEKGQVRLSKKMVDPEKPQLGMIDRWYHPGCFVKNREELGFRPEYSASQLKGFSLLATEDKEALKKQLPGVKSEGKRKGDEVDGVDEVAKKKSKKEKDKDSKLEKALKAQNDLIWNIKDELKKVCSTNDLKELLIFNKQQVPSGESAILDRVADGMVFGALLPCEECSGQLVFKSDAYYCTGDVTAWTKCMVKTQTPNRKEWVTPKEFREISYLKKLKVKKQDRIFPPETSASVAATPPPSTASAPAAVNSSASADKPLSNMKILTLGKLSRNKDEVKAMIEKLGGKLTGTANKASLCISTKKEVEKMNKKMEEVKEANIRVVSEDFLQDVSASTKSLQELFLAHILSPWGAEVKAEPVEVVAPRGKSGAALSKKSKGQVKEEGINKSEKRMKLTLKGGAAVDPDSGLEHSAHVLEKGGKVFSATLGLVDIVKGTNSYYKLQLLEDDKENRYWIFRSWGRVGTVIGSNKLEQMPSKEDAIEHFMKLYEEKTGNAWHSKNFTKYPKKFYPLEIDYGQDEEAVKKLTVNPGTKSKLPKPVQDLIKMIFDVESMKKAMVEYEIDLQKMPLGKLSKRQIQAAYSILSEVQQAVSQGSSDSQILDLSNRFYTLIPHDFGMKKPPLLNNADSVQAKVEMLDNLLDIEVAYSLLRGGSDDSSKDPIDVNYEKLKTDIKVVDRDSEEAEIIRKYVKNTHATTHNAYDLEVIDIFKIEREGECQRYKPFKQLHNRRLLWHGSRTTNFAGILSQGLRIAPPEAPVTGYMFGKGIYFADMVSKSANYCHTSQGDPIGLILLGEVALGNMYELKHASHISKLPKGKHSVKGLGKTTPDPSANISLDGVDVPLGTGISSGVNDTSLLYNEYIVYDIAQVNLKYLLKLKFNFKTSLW
UniProt P18887: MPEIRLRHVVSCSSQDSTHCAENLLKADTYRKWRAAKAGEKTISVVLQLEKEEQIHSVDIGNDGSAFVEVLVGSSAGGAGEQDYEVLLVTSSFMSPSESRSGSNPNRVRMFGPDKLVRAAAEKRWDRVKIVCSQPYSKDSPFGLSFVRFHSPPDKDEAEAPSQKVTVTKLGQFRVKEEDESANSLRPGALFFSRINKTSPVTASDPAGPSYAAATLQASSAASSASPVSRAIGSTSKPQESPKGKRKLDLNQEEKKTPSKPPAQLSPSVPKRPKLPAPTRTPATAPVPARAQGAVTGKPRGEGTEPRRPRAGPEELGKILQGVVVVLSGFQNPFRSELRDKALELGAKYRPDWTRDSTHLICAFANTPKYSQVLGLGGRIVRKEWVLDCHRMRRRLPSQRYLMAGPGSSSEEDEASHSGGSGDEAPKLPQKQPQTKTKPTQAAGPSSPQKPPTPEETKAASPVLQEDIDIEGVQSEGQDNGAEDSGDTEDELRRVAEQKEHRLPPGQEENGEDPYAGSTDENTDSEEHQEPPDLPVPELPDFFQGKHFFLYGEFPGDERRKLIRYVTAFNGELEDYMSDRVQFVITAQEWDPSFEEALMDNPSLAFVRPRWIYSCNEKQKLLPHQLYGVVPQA

No constants are given. Whether binding was seen depends on the method and setting. In cells and extracts the contact can be indirect. Some binding calls cover weakened binding; strength is not graded here.

Assay [1] addresses PARP1 (poly (ADP-ribose) polymerase 1), untagged, in HK-2 cells (human (endogenous in HK-2)) (UniProt P09874). As to the kind of experiment: co-IP; HK-2 lysates; anti-XRCC1 or anti-PARP1 antibody, control mouse IgG, protein G magnetic beads, 4 °C 1 h; Western blot; cells overexpressing PARP1 or with shRNA against PARP1. On the technique in general: In western blotting, separated proteins are transferred to a membrane and probed.

For assay [2], the target named is Myc-PARP1 (poly (ADP-ribose) polymerase 1) (UniProt P09874). Briefly: co-IP; HK-2 cells co-transfected with Myc-PARP1 and XRCC1-Flag; anti-Myc and anti-Flag agarose beads on cell lysates; Universal Magnetic Co-IP kit; Western blot.

Take “XRCC1 (X-ray repair cross-complementing 1), endogenous in HK-2 cells (from UniProt P18887 1-633)”: in assay [1], the binding entry is “binds”.
In the case of “XRCC1-Flag (X-ray repair cross-complementing 1) (from UniProt P18887 1-633)”, the binding result in assay [2] is “binds”.
